According to patent publication US20160363580A1, “Methods of Metabolic Kinetic Phenotyping and Uses Thereof” (The Texas A&M University System, priority 2015, published 2016):

Legend:
[1] = Pulse tracer protocol (bolus L-[15N]-Phe), two compartmental model of Phe kinetics; format: in vivo, pigs
Description: Female Yorkshire cross/domestic pigs (20-25 kg BW) were used in the experimental studies. The pigs were housed in steel pens (2 m×3 m) in a controlled housing facility with large animal cubicle at room temperature 22-24° C. with 12 hours light-dark cycle. The pigs were fed with standardized food 1 kg/day (Harlan Teklad Vegetarian Pig/Sow Grower)) and provided water ad libitum.
Animals received catheters and a jejunal stoma during a surgical procedure. During midline laparotomy, catheters were placed into the abdominal aorta for blood sampling, and in the caval vein for administering post-surgery medication and experiment related tracer infusions. A second arterial catheter was placed to monitor mean arterial blood pressure (MAP). A Swan ganz catheter (5 Fr, #132F5, Edwards life sciences, Irvine, Calif., USA) was placed via the right jugular vein to monitor mean pulmonary blood pressure (MPAP). Both preoperative and postoperative cares were standardized. During the recovery period (7-10 days) animals were accustomed to a small movable cage (0.9×0.5×0.3 m). The experiments were performed in this cage on awake animals. This study was approved by the animal experiment ethics committee of University of Arkansas Medical Sciences.
For the induction of sepsis, a live Pseudomonas aeruginosa (PM) human strain is used (IRS 12-4-4, Shriners burns institute, University of Texas Medical Branch, Galveston). Originally, this PM strain was isolated from a burnt patient at Brook Army Medical Center in San Antonio, Tex. […] Hemodynamics was continuously monitored to ensure that the hyperdynamic state was kept in the expected ranges for severe sepsis (body temp increase of 2-3° C., respiratory rate increased, MPAP increased but <35 mmHg, heart rate increased but <200 BPM).
The experiment started after a recovery period of 7-10 days. […] Fluid resuscitation (30 ml/kg bw/hour) was also started at T=0 h and hemodynamics were monitored continuously. […]

[2] = Arterial plasma Phe tracee concentration during the experimental period; format: in vivo, pigs; conditions: median over the experimental period

For N[C@@H](Cc1ccccc1)C(=O)O [Phe, phenylalanine], the “WbRa of Phe, sepsis group versus healthy” value ([1]; PULSE method, p=0.0001) was “higher”, the “WbRa, Pulse method relative to prime-constant infusion” value ([1]; pigs) was “about 1.6 times” and the “intracellular protein breakdown relative to WbRa using pulse method” value ([1]; pigs) was 1.7 times. For the same molecule, the “plasma Phe concentration” value ([2]; Healthy pigs) was 64.6 ± 4.0 µM and the “plasma Phe concentration” value ([2]; Sepsis pigs) was 113 ± 8.3 µM.
